Assay results from the supplement of paper PMC6411743.
± gives the standard deviation of the averaged measurements. This is one part of the list.

The chains behind the UniProt entries cited, without tags or fusion partners. Where a name states a change or a piece, a line headed by the entry shows the natural chain unless it says otherwise.
UniProt Q8WUI4: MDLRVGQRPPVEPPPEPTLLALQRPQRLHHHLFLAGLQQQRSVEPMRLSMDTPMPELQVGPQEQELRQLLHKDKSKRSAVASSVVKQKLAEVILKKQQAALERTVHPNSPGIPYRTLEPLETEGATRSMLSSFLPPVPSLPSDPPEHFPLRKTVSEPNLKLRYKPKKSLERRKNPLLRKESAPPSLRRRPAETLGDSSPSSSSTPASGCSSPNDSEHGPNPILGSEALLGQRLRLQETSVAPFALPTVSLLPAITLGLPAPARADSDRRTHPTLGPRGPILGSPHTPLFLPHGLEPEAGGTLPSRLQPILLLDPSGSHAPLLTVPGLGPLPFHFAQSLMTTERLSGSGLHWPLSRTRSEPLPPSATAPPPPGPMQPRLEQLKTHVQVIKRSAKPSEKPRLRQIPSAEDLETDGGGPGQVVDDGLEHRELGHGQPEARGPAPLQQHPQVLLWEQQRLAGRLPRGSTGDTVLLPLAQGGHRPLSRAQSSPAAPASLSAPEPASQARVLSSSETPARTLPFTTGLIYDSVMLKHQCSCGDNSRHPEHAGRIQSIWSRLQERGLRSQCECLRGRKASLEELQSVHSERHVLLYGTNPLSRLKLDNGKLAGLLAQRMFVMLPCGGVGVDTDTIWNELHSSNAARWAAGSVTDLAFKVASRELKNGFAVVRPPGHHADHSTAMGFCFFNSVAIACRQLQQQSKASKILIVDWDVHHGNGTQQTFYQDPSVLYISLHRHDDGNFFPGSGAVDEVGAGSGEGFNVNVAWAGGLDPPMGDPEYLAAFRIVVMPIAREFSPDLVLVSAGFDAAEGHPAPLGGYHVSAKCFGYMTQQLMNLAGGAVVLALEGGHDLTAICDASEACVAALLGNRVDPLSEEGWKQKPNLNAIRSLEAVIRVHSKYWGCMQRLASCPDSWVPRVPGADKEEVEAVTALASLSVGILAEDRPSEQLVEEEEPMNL
UniProt Q8WVC6: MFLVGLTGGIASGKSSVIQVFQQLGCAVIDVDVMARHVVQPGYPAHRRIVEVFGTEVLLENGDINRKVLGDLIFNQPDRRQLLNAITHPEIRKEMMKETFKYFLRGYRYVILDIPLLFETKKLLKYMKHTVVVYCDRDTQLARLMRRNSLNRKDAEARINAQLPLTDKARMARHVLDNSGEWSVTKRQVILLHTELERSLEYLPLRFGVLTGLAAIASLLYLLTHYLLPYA
UniProt Q00059: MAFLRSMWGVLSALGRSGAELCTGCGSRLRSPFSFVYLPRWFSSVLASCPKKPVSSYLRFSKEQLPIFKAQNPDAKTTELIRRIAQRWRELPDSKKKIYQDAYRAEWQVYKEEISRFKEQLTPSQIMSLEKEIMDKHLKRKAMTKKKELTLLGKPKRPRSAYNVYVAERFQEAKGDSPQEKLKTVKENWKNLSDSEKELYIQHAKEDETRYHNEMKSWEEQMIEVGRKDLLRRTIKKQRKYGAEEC
UniProt O75880: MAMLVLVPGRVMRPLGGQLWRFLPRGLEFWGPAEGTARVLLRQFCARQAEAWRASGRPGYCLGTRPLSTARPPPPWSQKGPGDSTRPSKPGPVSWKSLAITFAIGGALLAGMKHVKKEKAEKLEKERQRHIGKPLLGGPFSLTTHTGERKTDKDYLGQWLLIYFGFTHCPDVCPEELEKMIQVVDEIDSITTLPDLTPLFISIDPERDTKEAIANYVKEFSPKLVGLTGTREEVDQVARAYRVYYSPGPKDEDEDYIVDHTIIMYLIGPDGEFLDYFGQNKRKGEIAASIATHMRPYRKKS
UniProt Q8NBJ7: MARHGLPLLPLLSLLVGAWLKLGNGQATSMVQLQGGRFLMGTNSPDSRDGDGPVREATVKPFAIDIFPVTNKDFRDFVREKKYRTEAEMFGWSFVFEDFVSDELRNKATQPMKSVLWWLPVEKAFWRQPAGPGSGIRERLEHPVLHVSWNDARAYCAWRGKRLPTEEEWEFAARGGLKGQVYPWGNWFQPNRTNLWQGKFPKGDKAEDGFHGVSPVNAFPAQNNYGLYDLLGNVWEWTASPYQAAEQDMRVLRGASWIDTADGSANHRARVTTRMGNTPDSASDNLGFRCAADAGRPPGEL
UniProt Q14119: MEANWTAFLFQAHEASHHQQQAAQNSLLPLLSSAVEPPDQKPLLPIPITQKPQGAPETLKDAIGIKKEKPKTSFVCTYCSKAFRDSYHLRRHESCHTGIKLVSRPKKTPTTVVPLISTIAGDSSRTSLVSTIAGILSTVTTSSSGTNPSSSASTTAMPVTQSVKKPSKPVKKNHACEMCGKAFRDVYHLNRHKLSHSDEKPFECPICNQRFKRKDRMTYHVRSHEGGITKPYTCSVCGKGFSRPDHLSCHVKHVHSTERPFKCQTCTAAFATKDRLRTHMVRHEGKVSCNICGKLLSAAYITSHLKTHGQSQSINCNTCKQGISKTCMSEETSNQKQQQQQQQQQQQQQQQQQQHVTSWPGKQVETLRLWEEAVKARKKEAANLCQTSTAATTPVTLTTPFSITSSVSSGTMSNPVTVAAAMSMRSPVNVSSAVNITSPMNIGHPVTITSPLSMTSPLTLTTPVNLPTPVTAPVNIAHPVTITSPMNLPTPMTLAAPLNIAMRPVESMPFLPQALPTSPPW
UniProt P22830: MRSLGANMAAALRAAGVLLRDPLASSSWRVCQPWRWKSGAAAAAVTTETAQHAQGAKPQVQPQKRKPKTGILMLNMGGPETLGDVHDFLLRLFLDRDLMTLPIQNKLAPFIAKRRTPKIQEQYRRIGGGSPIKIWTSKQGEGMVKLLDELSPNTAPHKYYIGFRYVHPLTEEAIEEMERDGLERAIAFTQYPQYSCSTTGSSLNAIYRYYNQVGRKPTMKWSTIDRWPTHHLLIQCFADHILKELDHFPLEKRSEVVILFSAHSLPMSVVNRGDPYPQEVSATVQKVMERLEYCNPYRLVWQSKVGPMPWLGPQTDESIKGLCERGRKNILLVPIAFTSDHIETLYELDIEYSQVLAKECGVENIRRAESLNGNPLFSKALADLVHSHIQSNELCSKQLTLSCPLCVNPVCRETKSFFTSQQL
UniProt Q9UPN4: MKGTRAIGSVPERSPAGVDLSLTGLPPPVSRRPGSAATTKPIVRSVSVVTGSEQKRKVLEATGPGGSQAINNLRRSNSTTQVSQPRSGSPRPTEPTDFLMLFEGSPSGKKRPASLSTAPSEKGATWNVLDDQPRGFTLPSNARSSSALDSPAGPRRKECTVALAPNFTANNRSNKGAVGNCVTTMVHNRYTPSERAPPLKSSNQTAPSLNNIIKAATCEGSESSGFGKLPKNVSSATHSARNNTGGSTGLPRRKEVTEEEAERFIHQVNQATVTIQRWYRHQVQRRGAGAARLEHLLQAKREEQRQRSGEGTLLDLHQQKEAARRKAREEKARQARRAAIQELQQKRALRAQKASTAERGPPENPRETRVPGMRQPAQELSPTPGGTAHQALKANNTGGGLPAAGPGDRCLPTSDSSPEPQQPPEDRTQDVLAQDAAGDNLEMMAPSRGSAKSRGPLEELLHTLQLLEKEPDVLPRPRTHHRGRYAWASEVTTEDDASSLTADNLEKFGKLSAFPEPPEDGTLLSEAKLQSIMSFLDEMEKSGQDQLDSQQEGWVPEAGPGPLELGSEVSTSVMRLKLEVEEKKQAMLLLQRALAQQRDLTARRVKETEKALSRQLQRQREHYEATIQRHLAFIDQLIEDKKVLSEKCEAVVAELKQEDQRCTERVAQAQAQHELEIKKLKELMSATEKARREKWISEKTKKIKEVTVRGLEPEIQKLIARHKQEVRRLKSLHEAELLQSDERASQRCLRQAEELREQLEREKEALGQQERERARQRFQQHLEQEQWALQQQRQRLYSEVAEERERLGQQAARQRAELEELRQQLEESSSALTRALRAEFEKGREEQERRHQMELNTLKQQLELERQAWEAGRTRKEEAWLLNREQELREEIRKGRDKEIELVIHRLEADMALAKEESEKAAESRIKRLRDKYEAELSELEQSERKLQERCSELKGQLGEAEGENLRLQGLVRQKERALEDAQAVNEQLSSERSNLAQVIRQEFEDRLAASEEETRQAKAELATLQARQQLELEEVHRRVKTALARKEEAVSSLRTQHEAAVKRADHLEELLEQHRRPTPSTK
UniProt Q92879: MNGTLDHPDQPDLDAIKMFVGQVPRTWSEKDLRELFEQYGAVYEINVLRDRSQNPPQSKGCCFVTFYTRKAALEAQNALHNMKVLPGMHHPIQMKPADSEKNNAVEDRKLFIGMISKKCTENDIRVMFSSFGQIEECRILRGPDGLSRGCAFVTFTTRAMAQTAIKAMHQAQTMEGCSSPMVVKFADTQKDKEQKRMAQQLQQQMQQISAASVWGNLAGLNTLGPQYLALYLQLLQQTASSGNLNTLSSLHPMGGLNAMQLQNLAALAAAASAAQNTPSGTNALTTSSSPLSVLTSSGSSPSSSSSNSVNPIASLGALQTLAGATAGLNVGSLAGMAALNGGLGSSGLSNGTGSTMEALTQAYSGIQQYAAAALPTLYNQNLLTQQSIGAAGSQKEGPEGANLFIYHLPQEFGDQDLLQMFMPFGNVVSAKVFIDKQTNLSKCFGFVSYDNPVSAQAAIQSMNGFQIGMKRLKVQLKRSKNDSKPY
UniProt Q9H9Q2: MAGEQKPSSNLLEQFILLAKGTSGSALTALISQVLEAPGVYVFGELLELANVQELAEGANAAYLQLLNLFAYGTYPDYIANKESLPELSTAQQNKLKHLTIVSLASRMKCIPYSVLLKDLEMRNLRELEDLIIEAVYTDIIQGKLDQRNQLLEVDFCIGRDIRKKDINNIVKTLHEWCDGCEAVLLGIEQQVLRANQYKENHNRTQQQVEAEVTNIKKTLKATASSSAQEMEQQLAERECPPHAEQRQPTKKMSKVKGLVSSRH
UniProt Q14CW9: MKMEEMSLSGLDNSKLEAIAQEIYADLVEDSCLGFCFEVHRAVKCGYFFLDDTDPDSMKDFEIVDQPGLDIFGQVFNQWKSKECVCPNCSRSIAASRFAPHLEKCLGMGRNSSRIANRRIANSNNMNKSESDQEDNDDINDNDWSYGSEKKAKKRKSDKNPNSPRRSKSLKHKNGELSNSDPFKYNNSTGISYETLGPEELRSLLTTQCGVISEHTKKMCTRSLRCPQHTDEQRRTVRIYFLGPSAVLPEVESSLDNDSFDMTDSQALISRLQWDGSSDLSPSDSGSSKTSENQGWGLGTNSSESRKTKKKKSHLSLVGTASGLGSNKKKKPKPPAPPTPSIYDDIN
UniProt Q9Y2L5: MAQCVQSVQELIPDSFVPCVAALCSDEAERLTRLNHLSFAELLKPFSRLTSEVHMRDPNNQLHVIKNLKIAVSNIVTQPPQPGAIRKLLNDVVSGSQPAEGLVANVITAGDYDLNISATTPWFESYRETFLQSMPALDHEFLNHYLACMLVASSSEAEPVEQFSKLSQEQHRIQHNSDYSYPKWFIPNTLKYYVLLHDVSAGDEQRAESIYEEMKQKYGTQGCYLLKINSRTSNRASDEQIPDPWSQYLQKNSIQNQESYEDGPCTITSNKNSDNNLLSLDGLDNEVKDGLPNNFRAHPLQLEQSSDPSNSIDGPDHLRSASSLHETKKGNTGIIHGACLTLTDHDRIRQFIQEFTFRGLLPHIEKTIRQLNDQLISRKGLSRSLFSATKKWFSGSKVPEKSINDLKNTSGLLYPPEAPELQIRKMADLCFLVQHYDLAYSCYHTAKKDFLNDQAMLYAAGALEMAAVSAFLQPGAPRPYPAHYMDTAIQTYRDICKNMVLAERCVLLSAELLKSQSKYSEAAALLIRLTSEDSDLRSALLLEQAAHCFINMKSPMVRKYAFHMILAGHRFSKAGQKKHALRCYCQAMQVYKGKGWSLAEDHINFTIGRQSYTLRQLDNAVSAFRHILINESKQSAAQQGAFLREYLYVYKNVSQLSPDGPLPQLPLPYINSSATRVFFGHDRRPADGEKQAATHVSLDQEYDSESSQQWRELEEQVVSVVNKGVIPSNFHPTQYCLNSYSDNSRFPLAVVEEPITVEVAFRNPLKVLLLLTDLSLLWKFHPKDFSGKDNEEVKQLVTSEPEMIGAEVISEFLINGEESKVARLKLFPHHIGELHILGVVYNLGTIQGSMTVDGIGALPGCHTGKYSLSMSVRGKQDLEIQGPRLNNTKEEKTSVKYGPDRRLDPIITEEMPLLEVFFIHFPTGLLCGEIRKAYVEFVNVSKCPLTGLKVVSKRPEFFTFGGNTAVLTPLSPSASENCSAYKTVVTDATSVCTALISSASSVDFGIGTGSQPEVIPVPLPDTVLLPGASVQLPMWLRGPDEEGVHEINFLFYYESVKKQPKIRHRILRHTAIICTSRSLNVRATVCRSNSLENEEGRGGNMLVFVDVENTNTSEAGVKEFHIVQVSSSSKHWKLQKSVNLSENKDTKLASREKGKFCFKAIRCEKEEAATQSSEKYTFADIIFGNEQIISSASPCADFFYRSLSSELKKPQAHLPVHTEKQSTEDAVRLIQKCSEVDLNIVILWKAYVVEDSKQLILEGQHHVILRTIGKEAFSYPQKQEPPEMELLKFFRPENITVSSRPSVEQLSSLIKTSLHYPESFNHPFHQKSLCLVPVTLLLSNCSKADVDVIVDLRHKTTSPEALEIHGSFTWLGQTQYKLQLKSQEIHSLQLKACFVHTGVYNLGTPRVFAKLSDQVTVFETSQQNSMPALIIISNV

Compound: Nc1nc2c(ncn2[C@@H]2O[C@H](COP(=O)(O)OP(=O)(O)OP(=O)(O)O)[C@@H](O)[C@H]2O)c(=O)[nH]1 [guanosine triphosphate]
Assay: NP40-soluble protein abundance relative to vehicle (solubility fold change) (ratio); higher = more soluble protein in presence of GTP
How it was run: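 Values are fold changes against the detergent-processed vehicle, based on vsn-normalised intensities. Jurkat crude lysate was treated at eight concentrations from 0.1 to 10 mM (10 min at room temperature, then 3 min at 37 °C), solubilised with 0.8% NP40 and benzonase, ultracentrifuged and analysed by TMT-labelled LC-MS/MS over three independent experiments.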

| Target | NP40-soluble protein abundance (concentration: 0.1mM) | NP40-soluble protein abundance (concentration: 0.5mM) | NP40-soluble protein abundance (concentration: 1mM) | NP40-soluble protein abundance (concentration: 2mM) | NP40-soluble protein abundance (concentration: 4mM) | NP40-soluble protein abundance (concentration: 6mM) | NP40-soluble protein abundance (concentration: 8mM) | NP40-soluble protein abundance (concentration: 10mM) |
| --- | --- | --- | --- | --- | --- | --- | --- | --- |
| I3L4N8 and related entries (UniProt P63261) | 0.815 ± 0.28 | 0.853 ± 0.24 | 0.855 ± 0.22 | 0.841 ± 0.23 | 0.901 ± 0.23 | 0.879 ± 0.22 | 0.889 ± 0.25 | 0.946 ± 0.26 |
| J3KPH8 and related entries (UniProt Q8WUI4) | 1.11 ± 0.096 | 1.02 ± 0.028 | 1.05 ± 0.089 | 0.977 ± 0.079 | 1.01 ± 0.084 | 0.952 ± 0.026 | 1.03 ± 0.096 | 0.982 ± 0.076 |
| K7ESP4 and related entries (UniProt Q8WVC6) | 1.1 ± 0.045 | 1.16 ± 0.11 | 1.03 ± 0.11 | 1.06 ± 0.048 | 1.03 ± 0.039 | 1.04 ± 0.11 | 0.968 ± 0.043 | 0.972 ± 0.034 |
| H7BYN3 and related entries (UniProt Q00059) | 0.96 ± 0.06 | 0.936 ± 0.087 | 1.11 ± 0.061 | 1.13 ± 0.078 | 1.062 ± 0.0093 | 1.14 ± 0.099 | 1.14 ± 0.12 | 1.33 ± 0.17 |
| J3QL56 and related entries (UniProt O75880) | 0.914 ± 0.063 | 0.941 ± 0.072 | 0.909 ± 0.073 | 0.918 ± 0.097 | 0.873 ± 0.077 | 0.881 ± 0.076 | 0.884 ± 0.083 | 0.87 ± 0.078 |
| H0YKX3 and related entries (UniProt Q15004) | 1.03 ± 0.086 | 1.04 ± 0.062 | 1.07 ± 0.081 | 1.04 ± 0.12 | 0.957 ± 0.13 | 0.982 ± 0.15 | 1.19 ± 0.031 | 1.09 ± 0.039 |
| H6UMI1 and related entries (UniProt O95166) | 0.876 ± 0.048 | 0.962 ± 0.033 | 0.925 ± 0.055 | 0.874 ± 0.034 | 0.834 ± 0.06 | 0.892 ± 0.063 | 0.844 ± 0.052 | 0.886 ± 0.057 |
| H0YEN5 and related entries (UniProt P15880) | 0.979 ± 0.063 | 1.01 ± 0.1 | 0.965 ± 0.14 | 0.936 ± 0.19 | 0.848 ± 0.21 | 0.836 ± 0.21 | 0.738 ± 0.17 | 0.774 ± 0.2 |
| H0YAA3 and related entries (UniProt Q9HAD4) | 1.2 ± 0.11 | 1.06 ± 0.26 | 1.03 ± 0.2 | 0.971 ± 0.17 | 1 ± 0.048 | 0.949 ± 0.079 | 0.891 ± 0.11 | 0.966 ± 0.066 |
| J3KQJ1 and related entries (UniProt Q8NBJ7) | 1 ± 0.067 | 0.97 ± 0.077 | 0.97 ± 0.081 | 0.921 ± 0.086 | 0.913 ± 0.066 | 0.939 ± 0.1 | 0.923 ± 0.069 | 0.878 ± 0.051 |
| K7EKL3 and related entries (UniProt P28799) | 1.05 ± 0.1 | 1.04 ± 0.09 | 1.05 ± 0.1 | 1.03 ± 0.059 | 1.01 ± 0.11 | 1.02 ± 0.1 | 1.1 ± 0.061 | 1.05 ± 0.083 |
| K7ELQ4 and related entries (UniProt P17544+K7ELQ4) | 0.902 ± 0.047 | 0.863 ± 0.034 | 0.897 ± 0.071 | 0.929 ± 0.11 | 0.908 ± 0.076 | 0.93 ± 0.1 | 0.923 ± 0.058 | 0.953 ± 0.045 |
| K7ER95 and related entries (UniProt Q92918) | 1.06 ± 0.028 | 1.09 ± 0.031 | 1 ± 0.023 | 1.03 ± 0.029 | 0.991 ± 0.011 | 0.983 ± 0.038 | 0.984 ± 0.039 | 0.945 ± 0.065 |
| J3QSH4 and related entries (UniProt Q14119) | 1 ± 0.013 | 1.02 ± 0.069 | 1.02 ± 0.092 | 0.976 ± 0.14 | 0.93 ± 0.11 | 0.984 ± 0.14 | 1.01 ± 0.098 | 1.03 ± 0.13 |
| J3QKK3 and related entries (UniProt O43502) | 1.12 ± 0.13 | 1.14 ± 0.2 | 1.03 ± 0.074 | 1.04 ± 0.14 | 1.08 ± 0.12 | 0.976 ± 0.18 | 0.959 ± 0.094 | 1 ± 0.12 |
| J3QL71 and related entries (UniProt Q96FV2) | 1.02 ± 0.032 | 1.01 ± 0.032 | 0.964 ± 0.037 | 0.939 ± 0.048 | 0.915 ± 0.062 | 0.912 ± 0.027 | 0.913 ± 0.052 | 0.869 ± 0.038 |
| K7EPN2 and related entries (UniProt P22830) | 1.06 ± 0.013 | 1.06 ± 0.034 | 0.972 ± 0.015 | 0.945 ± 0.055 | 0.958 ± 0.039 | 0.939 ± 0.03 | 0.928 ± 0.043 | 0.885 ± 0.05 |
| I3L2J8 and related entries (UniProt Q9UPN4) | 1.2 ± 0.033 | 1.01 ± 0.09 | 1.23 ± 0.036 | 1.31 ± 0.02 | 1.36 ± 0.14 | 1.405 ± 0.0016 | 1.327 ± 0.0018 | 1.47 ± 0.23 |
| H7C1J8 and related entries (UniProt P51991) | 1.02 ± 0.076 | 1.17 ± 0.15 | 1.24 ± 0.24 | 1.39 ± 0.31 | 1.43 ± 0.42 | 1.42 ± 0.38 | 1.5 ± 0.44 | 1.48 ± 0.42 |
| G5E9Z2 and related entries (UniProt Q96KA5) | 1.09 ± 0.049 | 1.07 ± 0.017 | 1.02 ± 0.042 | 0.983 ± 0.034 | 0.989 ± 0.016 | 0.971 ± 0.039 | 0.974 ± 0.035 | 0.96 ± 0.04 |
| G5EA30 and related entries (UniProt Q92879) | 0.962 ± 0.08 | 0.968 ± 0.038 | 0.972 ± 0.05 | 0.942 ± 0.062 | 0.925 ± 0.046 | 0.916 ± 0.067 | 0.942 ± 0.049 | 0.931 ± 0.08 |
| J3KQ34 and related entries (UniProt Q9H9Q2) | 0.873 ± 0.1 | 0.813 ± 0.05 | 1.05 ± 0.17 | 1.1 ± 0.11 | 1.09 ± 0.16 | 1.05 ± 0.094 | 0.943 ± 0.12 | 1.17 ± 0.25 |
| J3KPF0 (UniProt Q9Y4D8) | 1.08 ± 0.021 | 1.1 ± 0.061 | 1.2 ± 0.14 | 1.24 ± 0.12 | 1.26 ± 0.18 | 1.23 ± 0.18 | 1.23 ± 0.17 | 1.18 ± 0.2 |
| K7EKG9 and related entries (UniProt Q14CW9) | 1.1 ± 0.08 | 1.11 ± 0.11 | 1.24 ± 0.066 | 1.15 ± 0.032 | 1.17 ± 0.042 | 1.15 ± 0.087 | 1.22 ± 0.058 | 1.19 ± 0.12 |
| J3QQJ5 and related entries (UniProt Q9Y2L5) | 1.09 ± 0.062 | 1.1 ± 0.12 | 1.05 ± 0.091 | 1.03 ± 0.11 | 1 ± 0.14 | 0.989 ± 0.13 | 1.01 ± 0.12 | 0.981 ± 0.13 |
| H3BSW6 and related entries (UniProt Q2VPK5) | 1.03 ± 0.014 | 1.12 ± 0.078 | 0.96 ± 0.0096 | 0.987 ± 0.12 | 1.03 ± 0.2 | 1.02 ± 0.11 | 0.907 ± 0.019 | 0.958 ± 0.12 |

2 entries from above, tab-delimited:
Target	NP40-soluble protein abundance (concentration: 0.1mM)	NP40-soluble protein abundance (concentration: 0.5mM)	NP40-soluble protein abundance (concentration: 1mM)	NP40-soluble protein abundance (concentration: 2mM)	NP40-soluble protein abundance (concentration: 4mM)	NP40-soluble protein abundance (concentration: 6mM)	NP40-soluble protein abundance (concentration: 8mM)	NP40-soluble protein abundance (concentration: 10mM)
K7EPN2 and related entries (UniProt P22830)	1.06 ± 0.013	1.06 ± 0.034	0.972 ± 0.015	0.945 ± 0.055	0.958 ± 0.039	0.939 ± 0.03	0.928 ± 0.043	0.885 ± 0.05
I3L2J8 and related entries (UniProt Q9UPN4)	1.2 ± 0.033	1.01 ± 0.09	1.23 ± 0.036	1.31 ± 0.02	1.36 ± 0.14	1.405 ± 0.0016	1.327 ± 0.0018	1.47 ± 0.23
